PubChem BioAssay AID1259254 | NCATS | 2017
Test: 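Finding genes that stop cells copying their DNA twice in one cycle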 (primary screen). Cells: human HCT116 colorectal cancer cells. Knock-down reagent: single siRNA against human genes. Timing: 3 days. Measurement: 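Nuclei stained with Hoechst and imaged; cell-cycle phase assigned by DNA content; G2 share scaled per plate, non-targeting siRNA 0%, GMNN siRNA 100%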. Scale: G2 robust z-score and G2 cells, % of GMNN control: higher = more G2 cells, more excess DNA replication; raw share of cells in G2: higher = larger share of cells with G2 DNA content. Rule for the call: 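Active siRNAs have a G2 robust z of 5 or more median absolute deviations over the median, which in these data means about 38% or higher of GMNN control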.
In all, the deposit lists about 59,000 reagents; this is an unselected part. In the full data, about 1,550 (2.6%) were called active. 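G2 share is only a proxy for re-replication; each gene was hit by three separate siRNAs, and active genes were retested.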 The raw values are shown without normalisation. A number with no mark means an inactive call. The numbers tell different reagents against one gene apart. Not stated in the record: the amount of reagent.

target | reagent no. | G2 robust z-score | G2 cells, % of GMNN control | raw share of cells in G2 (%)
DUX5 (GeneID 26581) | 1 | 0.787 | 8.51 | 10
DUX5 (GeneID 26581) | 2 | 0.142 | 3.97 | 5.5
DUX5 (GeneID 26581) | 3 | 0.087 | 3.58 | 5.16
ZNF175 (GeneID 7728) | 1 | -1.14 | -5.05 | 1.85
ZNF175 (GeneID 7728) | 2 | -0.224 | 1.39 | 6.61
ZNF175 (GeneID 7728) | 3 | 0.241 | 4.67 | 5.29
IGFBP5 (GeneID 3488) | 1 | -0.494 | -0.505 | 4.76
IGFBP5 (GeneID 3488) | 2 | 1.55 | 13.9 | 9.71
IGFBP5 (GeneID 3488) | 3 | 1 | 10 | 6.98
LOC651337 (GeneID 651337) | 1 | 0.523 | 6.65 | 6.22
LOC651337 (GeneID 651337) | 2 | 0.0795 | 3.53 | 4.47
LOC651337 (GeneID 651337) | 3 | 0.624 | 7.36 | 4.96
ZNF658 (GeneID 26149) | 1 | 0.406 | 5.83 | 4.85
ZNF658 (GeneID 26149) | 2 | -0.314 | 0.761 | 6.25
ZNF658 (GeneID 26149) | 3 | 3.63 | 28.5 | 12.6
C19orf47 (GeneID 126526) | 1 | 0.8 | 8.6 | 7.41
C19orf47 (GeneID 126526) | 2 | -0.198 | 1.58 | 3.6
C19orf47 (GeneID 126526) | 3 | -0.538 | -0.821 | 2.28
SLC6A7 (GeneID 6534) | 1 | 0.151 | 4.03 | 7.04
SLC6A7 (GeneID 6534) | 2 | -0.456 | -0.244 | 4.46
SLC6A7 (GeneID 6534) | 3 | -0.848 | -3 | 2.97

5 successive reagents from above:
target | reagent no. | G2 robust z-score | G2 cells, % of GMNN control | raw share of cells in G2 (%)
DUX5 (GeneID 26581) | 3 | 0.087 | 3.58 | 5.16
ZNF175 (GeneID 7728) | 1 | -1.14 | -5.05 | 1.85
ZNF175 (GeneID 7728) | 2 | -0.224 | 1.39 | 6.61
ZNF175 (GeneID 7728) | 3 | 0.241 | 4.67 | 5.29
IGFBP5 (GeneID 3488) | 1 | -0.494 | -0.505 | 4.76

The results go on:
target | reagent no. | G2 robust z-score | G2 cells, % of GMNN control | raw share of cells in G2 (%)
ROM1 (GeneID 6094) | 1 | -1.64 | -8.55 | 2.04
ROM1 (GeneID 6094) | 2 | 0.341 | 5.37 | 6.73
ROM1 (GeneID 6094) | 3 | 3.79 | 29.7 | 14
MPPED1 (GeneID 758) | 1 | -0.822 | -2.82 | 3.98
MPPED1 (GeneID 758) | 2 | -0.54 | -0.833 | 3.78
MPPED1 (GeneID 758) | 3 | -0.418 | 0.0257 | 3.53
MPPED1 (GeneID 758) | 4 | 0.239 | 4.65 | 5.31
MPPED1 (GeneID 758) | 5 | 0.535 | 6.73 | 5.25
MPPED1 (GeneID 758) | 6 | 0.064 | 3.42 | 4.89
TMEM18 (GeneID 129787) | 1 | -0.077 | 2.43 | 4.17
TMEM18 (GeneID 129787) | 2 | 0.729 | 8.1 | 6.3
TMEM18 (GeneID 129787) | 3 | -1.28 | -6.04 | 1.98
NRN1L (GeneID 123904) | 1 | -0.494 | -0.505 | 3.18
NRN1L (GeneID 123904) | 2 | -0.678 | -1.81 | 1.29
NRN1L (GeneID 123904) | 3 | -0.24 | 1.28 | 4.6
XAGE1B (GeneID 653067) | 1 | 0.68 | 7.75 | 8.83
XAGE1B (GeneID 653067) | 2 | -0.348 | 0.516 | 4.16
XAGE1B (GeneID 653067) | 3 | -0.498 | -0.534 | 3.21
MSX1 (GeneID 4487) | 1 | -0.997 | -4.05 | 1.86
MSX1 (GeneID 4487) | 2 | -1.03 | -4.25 | 3.79
MSX1 (GeneID 4487) | 3 | -0.35 | 0.505 | 5.56
CIMIP7 (GeneID 646498) | 1 | 2.05 | 17.4 | 8.57
CIMIP7 (GeneID 646498) | 2 | -0.22 | 1.42 | 4.31
CIMIP7 (GeneID 646498) | 3 | -0.221 | 1.41 | 3.75
ASB14 (GeneID 142686) | 1 | 6.26 (active) | 47 | 19.6
ASB14 (GeneID 142686) | 2 | 1.15 | 11 | 6.32
ASB14 (GeneID 142686) | 3 | -0.344 | 0.549 | 3.26
